Assay results published in paper PMC7904744.
The exact form of at least one protein or probe is not confirmed. For some of these results: No signal at the amounts used counts as a negative. For some of these results: At least one verdict rests on a figure or table, not on a statement of the authors. For some of these results: The comparison behind a weaker result is the experiment's own reference, which may not be listed here.

Chains of the proteins cited; added tags and fusions are not shown. Residues count along the entry.
UniProt Q15717, whole entry D226A: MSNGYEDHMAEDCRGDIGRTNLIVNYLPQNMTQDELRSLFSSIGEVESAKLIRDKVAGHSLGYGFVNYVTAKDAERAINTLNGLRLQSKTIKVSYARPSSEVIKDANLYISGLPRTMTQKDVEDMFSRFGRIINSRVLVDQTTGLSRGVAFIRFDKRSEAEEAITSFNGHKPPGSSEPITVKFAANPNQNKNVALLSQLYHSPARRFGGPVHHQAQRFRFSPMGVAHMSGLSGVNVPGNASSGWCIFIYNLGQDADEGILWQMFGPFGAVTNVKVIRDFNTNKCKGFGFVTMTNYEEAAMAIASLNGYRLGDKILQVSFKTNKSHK
UniProt Q15717, 20-186, stated change not applied: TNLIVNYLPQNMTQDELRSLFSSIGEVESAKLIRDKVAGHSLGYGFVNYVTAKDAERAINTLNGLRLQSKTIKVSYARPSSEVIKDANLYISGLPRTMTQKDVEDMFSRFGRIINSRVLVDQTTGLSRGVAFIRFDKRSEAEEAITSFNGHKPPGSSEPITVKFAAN
UniProt Q15717, whole entry: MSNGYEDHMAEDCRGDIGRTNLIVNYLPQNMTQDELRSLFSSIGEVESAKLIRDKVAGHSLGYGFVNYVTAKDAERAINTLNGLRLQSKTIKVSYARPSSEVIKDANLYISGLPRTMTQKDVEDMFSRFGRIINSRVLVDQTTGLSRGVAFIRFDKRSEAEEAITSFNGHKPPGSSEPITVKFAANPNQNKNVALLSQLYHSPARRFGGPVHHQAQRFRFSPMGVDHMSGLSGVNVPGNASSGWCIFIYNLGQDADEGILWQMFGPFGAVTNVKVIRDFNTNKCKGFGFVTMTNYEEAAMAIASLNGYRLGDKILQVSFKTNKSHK
UniProt Q15717, 106-186: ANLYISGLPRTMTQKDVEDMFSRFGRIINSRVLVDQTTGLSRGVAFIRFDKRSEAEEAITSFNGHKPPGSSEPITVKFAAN
UniProt Q15717, 244-322: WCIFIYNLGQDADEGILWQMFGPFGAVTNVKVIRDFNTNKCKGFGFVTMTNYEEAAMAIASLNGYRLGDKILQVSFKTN

What was measured:
Test in all cases: EMSA
[1] = biological target: GST-HuR D226A incubated with PARP1 (UniProt Q15717); conditions: after PARP1 reaction, monomer and oligomer bands reduced vs PARylated WT; EMSA: 3 mM MgCl2, 40 mM KCl, 5% glycerol, 2 mM DTT, 2 ug tRNA, 5 nM RNA, 40 min room temperature; pH not stated; 6% native acrylamide gel; recombinant protein; protein details: GST; label: 5' biotin
GST-HuR D226A = GST-HuR D226A (UniProt Q15717); conditions: unmodified, monomer band as WT, oligomer bands weakened; EMSA: 3 mM MgCl2, 40 mM KCl, 5% glycerol, 2 mM DTT, 2 ug tRNA, 5 nM RNA, 40 min room temperature; pH not stated; 6% native acrylamide gel; recombinant protein; protein details: GST; label: 5' biotin
[2] = biological target: GST-HuR RRM1+RRM2 (delta HNS+RRM3) (UniProt Q15717); conditions: no multiple shifted bands, monomer association also impaired; EMSA: 3 mM MgCl2, 40 mM KCl, 5% glycerol, 2 mM DTT, 2 ug tRNA, 5 nM RNA, 40 min room temperature; pH not stated; 6% native acrylamide gel; recombinant protein; protein details: GST; label: 5' biotin
GST-HuR-HNS = GST-HuR-HNS (UniProt Q15717); conditions: not effectively shifted; EMSA: 3 mM MgCl2, 40 mM KCl, 5% glycerol, 2 mM DTT, 2 ug tRNA, 5 nM RNA, 40 min room temperature; pH not stated; 6% native acrylamide gel; recombinant protein; protein details: GST; label: 5' biotin
PARylated GST-HuR = PARylated GST-HuR (UniProt Q15717); conditions: PARylated, binding markedly enhanced vs unmodified, weakened by Olaparib; EMSA: 3 mM MgCl2, 40 mM KCl, 5% glycerol, 2 mM DTT, 2 ug tRNA, 5 nM RNA, 40 min room temperature; pH not stated; 6% native acrylamide gel; recombinant protein; protein details: GST; label: 5' biotin
GST-HuR delta RRM3 = GST-HuR delta RRM3 (UniProt Q15717); conditions: weak retarding complexes; EMSA: 3 mM MgCl2, 40 mM KCl, 5% glycerol, 2 mM DTT, 2 ug tRNA, 5 nM RNA, 40 min room temperature; pH not stated; 6% native acrylamide gel; recombinant protein; protein details: GST; label: 5' biotin
GST-HuR-RRM2 = GST-HuR-RRM2 (UniProt Q15717); conditions: not effectively shifted; EMSA: 3 mM MgCl2, 40 mM KCl, 5% glycerol, 2 mM DTT, 2 ug tRNA, 5 nM RNA, 40 min room temperature; pH not stated; 6% native acrylamide gel; recombinant protein; protein details: GST; label: 5' biotin
GST-HuR-RRM3 = GST-HuR-RRM3 (UniProt Q15717); conditions: not effectively shifted; EMSA: 3 mM MgCl2, 40 mM KCl, 5% glycerol, 2 mM DTT, 2 ug tRNA, 5 nM RNA, 40 min room temperature; pH not stated; 6% native acrylamide gel; recombinant protein; protein details: GST; label: 5' biotin

“AUUUAUUUAUUUAUUUAUUUAUUUA [AU-rich RNA oligo (tandem ARE repeat)]”: binds more weakly [1]; binds more weakly (GST-HuR D226A); binds more weakly [2]. “AUUUAUUUAUUUAUUUAUUUAUUUA [AU-rich RNA oligo (tandem ARE repeat)]”: no binding (GST-HuR-HNS); binds (PARylated GST-HuR); binds more weakly (GST-HuR delta RRM3). “AUUUAUUUAUUUAUUUAUUUAUUUA [AU-rich RNA oligo (tandem ARE repeat)]”: no binding (GST-HuR-RRM2); no binding (GST-HuR-RRM3).
“CUAUGUAUUUAUUUAUUUAUUAAUU [Cxcl2 ARE RNA oligo]”: binds more weakly [2]; no binding (GST-HuR-HNS); binds more weakly (GST-HuR delta RRM3). “CUAUGUAUUUAUUUAUUUAUUAAUU [Cxcl2 ARE RNA oligo]”: no binding (GST-HuR-RRM2); no binding (GST-HuR-RRM3).
